Data taken from PubChem BioAssay AID504749, deposited by NCATS (2011).

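Malaria parasite (P. falciparum) lines kept in red blood cells; parasite DNA is measured by SYBR Green fluorescence after lysis, 72 h after compound addition. Each compound was titrated across a series from about 0.000037 to 29 µM. The number is the fitted AC50, the concentration giving a half-maximal change in signal; a lower value means higher potency, whether the curve shows a decrease or an increase. Calls follow the curve class and fit quality: every row here is inconclusive, covering signal-raising curves and weak, poorly fitted, partial or highest-dose-only inhibition curves.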

Values are in µM. Every entry below has the call inconclusive. These entries are mostly ones the record files as inconclusive; other results of the assay are not listed here. A potency from a partial, single-point or poor curve is only a rough figure. The first word of each remark tells which way the curve ran; it can be opposite to the aim of the assay.

SMILES: CN1C[C@H](CNC(=O)OCc2ccccc2)C[C@@H]2c3cccc4c3c(cn4C)C[C@H]21
tested on / at: CP191
fitted potency (µM): 7.08
curve: inhibitor, partial curve, poor fit

SMILES: CN1C[C@H](CNC(=O)OCc2ccccc2)C[C@@H]2c3cccc4c3c(cn4C)C[C@H]21
tested on / at: CP268
fitted potency (µM): 8.492
curve: inhibitor, partial curve, poor fit

SMILES: CN1C[C@H](CNC(=O)OCc2ccccc2)C[C@@H]2c3cccc4c3c(cn4C)C[C@H]21
tested on / at: CP266
fitted potency (µM): 15.1
curve: inhibitor, single point

SMILES: CN1C[C@H](CNC(=O)OCc2ccccc2)C[C@@H]2c3cccc4c3c(cn4C)C[C@H]21
tested on / at: CP215
fitted potency (µM): 15.1
curve: inhibitor, single point

SMILES: CN1C[C@H](CNC(=O)OCc2ccccc2)C[C@@H]2c3cccc4c3c(cn4C)C[C@H]21
tested on / at: CP247
fitted potency (µM): 10
curve: activator

SMILES: CN1C[C@H](CNC(=O)OCc2ccccc2)C[C@@H]2c3cccc4c3c(cn4C)C[C@H]21
tested on / at: CP194
fitted potency (µM): 8.492
curve: inhibitor, partial curve

SMILES: CN1C[C@H](CNC(=O)OCc2ccccc2)C[C@@H]2c3cccc4c3c(cn4C)C[C@H]21
tested on / at: CP329
fitted potency (µM): 12
curve: inhibitor, partial curve

SMILES: CN1C[C@H](CNC(=O)OCc2ccccc2)C[C@@H]2c3cccc4c3c(cn4C)C[C@H]21
tested on / at: CP269
fitted potency (µM): 8.492
curve: inhibitor, partial curve

SMILES: CN1C[C@H](CNC(=O)OCc2ccccc2)C[C@@H]2c3cccc4c3c(cn4C)C[C@H]21
tested on / at: CP250
fitted potency (µM): 12.59
curve: inhibitor, single point

SMILES: CN1C[C@H](CNC(=O)OCc2ccccc2)C[C@@H]2c3cccc4c3c(cn4C)C[C@H]21
tested on / at: PAD
fitted potency (µM): 11.22
curve: inhibitor, single point

SMILES: CN1C[C@H](CNC(=O)OCc2ccccc2)C[C@@H]2c3cccc4c3c(cn4C)C[C@H]21
tested on / at: PC15
fitted potency (µM): 11.22
curve: inhibitor, single point

SMILES: CN1C[C@H](CNC(=O)OCc2ccccc2)C[C@@H]2c3cccc4c3c(cn4C)C[C@H]21
tested on / at: HB3
fitted potency (µM): 5.012
curve: inhibitor, partial curve

SMILES: CN1C[C@H](CNC(=O)OCc2ccccc2)C[C@@H]2c3cccc4c3c(cn4C)C[C@H]21
tested on / at: CP325
fitted potency (µM): 9.528
curve: inhibitor, partial curve

For reference, 2 entries once more:

{"smiles": "CN1C[C@H](CNC(=O)OCc2ccccc2)C[C@@H]2c3cccc4c3c(cn4C)C[C@H]21", "tested on / at": "CP247", "fitted potency (µM)": "10", "curve": "activator"}
{"smiles": "CN1C[C@H](CNC(=O)OCc2ccccc2)C[C@@H]2c3cccc4c3c(cn4C)C[C@H]21", "tested on / at": "CP250", "fitted potency (µM)": "12.59", "curve": "inhibitor, single point"}